Percent effect of library compounds

Protein sequences, listed by entry. Tags and fused reporters are not part of them.
UniProt P9WFT3, whole entry: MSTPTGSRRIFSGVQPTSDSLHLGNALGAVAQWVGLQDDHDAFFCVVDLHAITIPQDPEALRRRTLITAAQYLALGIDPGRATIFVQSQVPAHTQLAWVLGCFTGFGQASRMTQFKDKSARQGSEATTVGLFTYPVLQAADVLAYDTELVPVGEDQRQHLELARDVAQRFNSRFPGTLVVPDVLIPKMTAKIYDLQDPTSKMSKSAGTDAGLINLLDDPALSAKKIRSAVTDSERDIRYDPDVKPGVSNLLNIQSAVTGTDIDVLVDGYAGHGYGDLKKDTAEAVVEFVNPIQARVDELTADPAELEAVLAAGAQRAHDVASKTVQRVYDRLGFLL
UniProt P9WPC5, whole entry: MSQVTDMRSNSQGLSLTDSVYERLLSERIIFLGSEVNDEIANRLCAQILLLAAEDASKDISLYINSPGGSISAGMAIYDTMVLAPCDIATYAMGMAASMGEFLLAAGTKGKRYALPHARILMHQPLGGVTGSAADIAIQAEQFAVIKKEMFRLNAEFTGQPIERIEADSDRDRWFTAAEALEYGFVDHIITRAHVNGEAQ
UniProt P9WPC3, whole entry partner: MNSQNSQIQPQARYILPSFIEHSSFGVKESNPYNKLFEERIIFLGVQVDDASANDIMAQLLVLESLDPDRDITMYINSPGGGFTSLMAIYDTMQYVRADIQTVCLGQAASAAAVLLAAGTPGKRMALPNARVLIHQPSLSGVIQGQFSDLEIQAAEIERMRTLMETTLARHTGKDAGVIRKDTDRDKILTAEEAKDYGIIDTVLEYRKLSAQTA
UniProt P9WNZ1, whole entry: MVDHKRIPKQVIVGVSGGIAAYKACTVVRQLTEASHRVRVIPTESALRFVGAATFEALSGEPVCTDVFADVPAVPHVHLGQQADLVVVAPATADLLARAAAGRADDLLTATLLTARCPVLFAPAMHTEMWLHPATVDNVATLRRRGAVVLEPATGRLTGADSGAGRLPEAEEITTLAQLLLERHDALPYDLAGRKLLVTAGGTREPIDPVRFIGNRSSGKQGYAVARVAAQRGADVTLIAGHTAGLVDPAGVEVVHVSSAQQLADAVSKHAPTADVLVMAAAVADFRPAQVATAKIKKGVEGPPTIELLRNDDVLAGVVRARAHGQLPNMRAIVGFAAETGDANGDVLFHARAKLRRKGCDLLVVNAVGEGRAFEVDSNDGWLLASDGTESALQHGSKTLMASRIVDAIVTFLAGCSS
UniProt I6X8D2, whole entry: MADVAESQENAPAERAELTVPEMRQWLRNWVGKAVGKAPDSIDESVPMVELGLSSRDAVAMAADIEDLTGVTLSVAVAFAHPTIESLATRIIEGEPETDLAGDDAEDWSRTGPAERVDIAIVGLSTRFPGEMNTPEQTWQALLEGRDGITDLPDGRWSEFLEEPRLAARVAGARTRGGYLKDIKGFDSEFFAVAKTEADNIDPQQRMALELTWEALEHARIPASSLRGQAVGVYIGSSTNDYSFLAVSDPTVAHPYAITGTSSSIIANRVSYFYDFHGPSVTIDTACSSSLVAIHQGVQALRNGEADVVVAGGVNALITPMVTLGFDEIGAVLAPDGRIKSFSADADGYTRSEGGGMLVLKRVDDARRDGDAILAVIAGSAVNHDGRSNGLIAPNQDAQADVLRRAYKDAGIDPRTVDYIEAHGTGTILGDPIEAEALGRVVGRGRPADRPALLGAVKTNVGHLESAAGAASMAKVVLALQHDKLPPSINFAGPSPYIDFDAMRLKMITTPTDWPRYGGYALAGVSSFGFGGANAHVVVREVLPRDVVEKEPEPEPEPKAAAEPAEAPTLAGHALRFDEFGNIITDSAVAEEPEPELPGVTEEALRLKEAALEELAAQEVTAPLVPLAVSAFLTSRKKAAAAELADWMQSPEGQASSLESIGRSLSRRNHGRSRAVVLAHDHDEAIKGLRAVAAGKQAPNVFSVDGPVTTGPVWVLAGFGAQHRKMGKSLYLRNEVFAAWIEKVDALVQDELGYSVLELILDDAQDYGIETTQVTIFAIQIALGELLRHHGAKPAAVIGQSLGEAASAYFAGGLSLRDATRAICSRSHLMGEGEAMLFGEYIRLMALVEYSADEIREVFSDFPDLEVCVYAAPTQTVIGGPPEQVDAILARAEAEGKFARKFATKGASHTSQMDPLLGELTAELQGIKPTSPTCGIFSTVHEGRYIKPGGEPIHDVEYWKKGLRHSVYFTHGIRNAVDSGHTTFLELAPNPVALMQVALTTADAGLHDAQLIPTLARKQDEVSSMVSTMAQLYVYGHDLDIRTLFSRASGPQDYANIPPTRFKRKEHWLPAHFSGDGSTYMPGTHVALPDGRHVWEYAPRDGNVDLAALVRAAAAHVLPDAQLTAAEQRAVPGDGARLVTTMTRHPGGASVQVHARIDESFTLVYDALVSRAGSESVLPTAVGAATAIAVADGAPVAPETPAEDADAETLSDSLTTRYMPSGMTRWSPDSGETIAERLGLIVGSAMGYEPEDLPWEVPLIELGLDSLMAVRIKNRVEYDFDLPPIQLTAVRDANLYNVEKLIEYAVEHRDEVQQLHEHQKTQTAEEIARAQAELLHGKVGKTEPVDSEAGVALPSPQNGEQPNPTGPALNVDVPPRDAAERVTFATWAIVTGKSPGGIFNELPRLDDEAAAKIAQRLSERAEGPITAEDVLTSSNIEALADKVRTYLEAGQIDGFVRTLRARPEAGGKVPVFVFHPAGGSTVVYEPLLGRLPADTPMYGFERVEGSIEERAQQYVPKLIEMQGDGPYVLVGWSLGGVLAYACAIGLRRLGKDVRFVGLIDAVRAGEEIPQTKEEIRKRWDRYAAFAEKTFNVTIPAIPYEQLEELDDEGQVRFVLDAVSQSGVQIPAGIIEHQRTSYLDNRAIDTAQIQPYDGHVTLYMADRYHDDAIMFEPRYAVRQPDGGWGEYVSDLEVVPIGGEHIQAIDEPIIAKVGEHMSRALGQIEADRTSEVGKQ

From ChEMBL document CHEMBL3988442, “University of Dundee, Small-Polar-MMV Screening Library” (2021).

MtTrpRS: 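Enzyme assay of tryptophanyl-tRNA synthetase; the read-out is not stated. Target: Tryptophan-tRNA ligase, Mycobacterium tuberculosis (UniProt P9WFT3). Tested at 10 µM. Higher most likely means stronger inhibition; the record gives no direction and few retests gave an IC50. Of about 65,000 compounds tested this way, about 64 (0.098%) reached 50% or more in at least one test.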
Toxoplasma: 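Assay of Toxoplasma gondii numbers, read through their beta-galactosidase reporter with a colour substrate. Compounds at 10 µM. The record gives no direction; the compounds picked for IC50 retests had high values, so higher reads as fewer parasites. Of about 67,000 compounds tested this way, about 260 (0.38%) reached 50% or more in at least one test.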
ClpP1P2: 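ClpP1P2, Mycobacterium tuberculosis (UniProt P9WPC5 and UniProt P9WPC3). Protease assay of ClpP1P2, read by the AMC dye that it sets free. Compounds at 50 µM. Higher reads as stronger inhibition, judged from the few compounds that gave an IC50. Most other retested compounds had strongly negative values. About 69,000 compounds were tested under these conditions; 0.015% (about 10) showed 50% or more at least once.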
CoaBC: 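Enzyme assay of CoaBC with a phosphate dye (Biomol Green) read at 650 nm. Target: Coenzyme A biosynthesis protein CoaBC, Mycobacterium tuberculosis (UniProt P9WNZ1). Compounds at 30 µM. Direction is inferred from only a few compounds that gave an IC50; most scored high, so higher reads as stronger inhibition. Most strong results did not repeat in a second test. Size under these conditions: about 67,000 compounds, about 40 of them at 50% or above in at least one test.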
Pks13 thioesterase: 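Polyketide synthase Pks13, Mycobacterium tuberculosis (UniProt I6X8D2). Enzyme assay of the thioesterase domain of polyketide synthase 13; the read-out is not stated. Tested at 30 µM. Higher reads as stronger inhibition (inferred from which compounds were picked for retests). About 67,000 compounds were tested under these conditions; 0.46% (about 300) showed 50% or more at least once.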

The filed quantity is “Percent Effect” (%).
The record does not define 0% and 100%; most values in the screen are far below 50% and negative numbers occur (in some assays of this library far below -100).
This is an unselected part of the compounds tested.
Two or more numbers in one place are separate tests of the same structure; such repeats can differ widely.
A dash means the value is not listed here; it may have been measured.

| # | structure | MtTrpRS | Toxoplasma | ClpP1P2 | CoaBC | Pks13 thioesterase |
|---|---|---|---|---|---|---|
| 1 | `CSc1ccccc1NC(=O)CCN1CCC(C(=O)N(C)C)CC1` | -0.4036 | 4.908 | 7.859 | 3.427 | -4.771 |
| 2 | `Cc1cc(C)n(C2CCN(S(=O)(=O)N3CCOCC3)CC2)n1` | -0.2114 | 10.25 | -19.69 | -5.34 | 4.894 |
| 3 | `Cc1nccc(N[C@H]2CN(C(=O)CN3CCOCC3)C[C@@H]2C(C)C)n1` | -0.1485 | -12.65 | -13.86 | 5.98 | 23.86 |
| 4 | `COCCn1cc(CC(=O)Nc2cc(C)n(C)n2)c2ccccc21` | 0 | -1.417 | -14.23 | 0.2301 | -21.14 |
| 5 | `Cc1cc(C)n(CC2CCCN2CC(=O)Nc2nncs2)n1` (stereo not shown) | 0.000007 | -12.99 | -4.065 | -0.8739 | -8.341 |
| 6 | `CNC(=O)CC1CC2(CCN(S(C)(=O)=O)CC2)c2ccccc21` (stereo not shown) | 2.931 | -1.323 | 11.91 | 4.459 | -11.26 |
| 7 | `O=C(COc1coc(CN2CCCCC2)cc1=O)c1ccccc1` | 1.431 | 6.911 | -24.66 | 3.038 | -15.2 |
| 8 | `CN1CCC(c2nc3ccc(-c4cccc(F)c4)cn3n2)CC1.O=C(O)C(F)(F)F` | - | -6.078 | - | - | - |
| 9 | `O=C(C1CCC1)N1CC[C@@H]2CN(Cc3cccnc3)S(=O)(=O)[C@@H]2CC1` | - | - | 3.221 | 4.938 | -12.76 |
| 10 | `Cc1nc(CN2CCCC(NCCCc3ccccc3)C2)no1` (stereo not shown) | 0.6877 | 6.172 | -24.65 | 4.987 | -8.253 |
| 11 | `COc1ccc2c(c1)NC(C1CCNCC1)NS2(=O)=O` (stereo not shown) | -1.592 | -12.54 | 9.953 | -2.822 | 3.984 |
| 12 | `c1c[nH]c2nc(C3CCNC3)nc-2c1` (stereo not shown) | -5.791 | -1.62 | 6.799 | -5.526 | -8.393 |
| 13 | `CCC(NC(=O)c1cccc2cc[nH]c12)C(=O)N1CCOCC1` (stereo not shown) | 2.233 | 7.788 | -0.9409 | 5.423 | -25.9 |
| 14 | `CC(C)Cn1cc(NC(=O)N2CCOC(c3ccccc3)C2)cn1` (stereo not shown) | -5.46 | 9.359 | -1.861 | 4.497 | - |
| 15 | `Cc1cc(C)n(-c2cncc(N3CCN(C(=O)C(C)C)CC3)n2)n1` | -2.922 | -1.018 | -8.299 | 9.127 | -1.235 |
| 16 | `O=C(NCc1ccco1)c1[nH]nc2c1CS(=O)(=O)CC2` | -3.661 | 9.013 | 0.3755 | 7.746 | -20.5 |
| 17 | `c1cncc(OCc2noc3c2CN(Cc2ccoc2)CC3)c1` | 4.221 | 2.152 | 14.33 | -2.826 | -29.24 |
| 18 | `Cc1cc(C(=O)N[C@H](C)c2onc(-c3cccnc3)c2C(=O)O)c(C)o1` | -0.2288 | - | -2.652 | -1352 and 20.63 | -18.9 |
| 19 | `c1ccc(CN2CCc3c(COCc4ccncc4)cncc3C2)nc1` | 0.8292 | - | -8.141 | 8.941 | -1.451 |
| 20 | `O=C(O)C(F)(F)F.O=C(O)C(F)(F)F.O=C(O)C(F)(F)F.c1cc(CN2CCOCC3(CCN(CC4CCOCC4)CC3)C2)ccn1` | - | -5.565 | - | - | - |
| 21 | `CN(CCn1cnnc1)S(=O)(=O)c1ccc(C(F)(F)F)nc1` | -3.86 | 8.78 | -8.207 | 1.399 | 2.291 |
| 22 | `Cn1cccc1-c1nnc(C2(c3ccc4c(c3)OCO4)CCOCC2)o1` | 1.982 | -3.462 | -12.86 | -0.4969 | -17.02 |
| 23 | `COc1cc(-c2cc(N)ncn2)cc(OC)c1OC` | - | -5.987 | 6.485 | -1.807 | -4.039 |
| 24 | `Cc1noc(CN(C)C(=O)c2n[nH]c(N)c2-c2ccccc2)n1` | -2.16 | -2.97 | 0.5895 | 5.34 | -5.171 |
| 25 | `Cc1cnc(N2CCOC3(CCCN(C)C3)C2)nc1` (stereo not shown) | -3.597 | - | 5.803 | 2.5 | -13.57 |
| 26 | `[H][C@@]12CS(=O)(=O)C[C@]1([H])N(Cc1ccc(C#N)cc1)CCN2C(=O)C1CCC1` | - | 3.147 | - | - | - |
| 27 | `Cc1ccc(OCC(=O)NC2CC2)nc1` | 1.616 | 2.642 | -9.314 | 1.333 | -16.89 |
| 28 | `COCc1ccc(C(=O)N2CCC(c3cc4ncc(C)nc4[nH]3)C2)cc1` (stereo not shown) | -4.706 | 0.7059 | -22.08 | -2.349 | 6.552 |
| 29 | `Cc1nccc(N[C@H]2CN(CC(C)(C)N3CCOCC3)C[C@@H]2C2CC2)n1` | 3.511 | 12.67 | -6.949 | -2.755 | -15.21 |
| 30 | `COc1cnc(C2(O)CCN(C(=O)c3cccnc3)CC2)c(OC)n1` | -0.2508 | 0.4484 | 2.664 | -7.5 | -38.89 |
| 31 | `O=C(NC1CC2(CCN(CCO)CC2)Oc2ccccc21)c1csnn1` (stereo not shown) | -9.076 | 30.08 | 4.503 | -1.97 | -10.05 |

Some entries from above, unchanged:

- Cc1nccc(N[C@H]2CN(C(=O)CN3CCOCC3)C[C@@H]2C(C)C)n1 : MtTrpRS: -0.1485%; Toxoplasma: -12.65%; ClpP1P2: -13.86%; CoaBC: 5.98%; Pks13 thioesterase: 23.86%
- CNC(=O)CC1CC2(CCN(S(C)(=O)=O)CC2)c2ccccc21 (stereo not shown) : MtTrpRS: 2.931%; Toxoplasma: -1.323%; ClpP1P2: 11.91%; CoaBC: 4.459%; Pks13 thioesterase: -11.26%